PubChem BioAssay AID1259308, NCATS | 2017
This is a random part of about 59,000 reagents. Over the whole deposit, about 1,510 (2.6%) got an active call. 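Calls use total luciferase alone and ignore viability, so some active siRNAs may act by altering cell number.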

- Purpose: 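Candidate targets for better recombinant protein yield in mammalian cells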 (primary screen)
- System: human HEK293 embryonic kidney cells stably expressing firefly luciferase (HEK-CMV-Luc2-Hygro)
- Reagents: single siRNA against human genes, 0.8 pmol siRNA per well
- Duration: 72 h
- Measurement: 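Reporter luminescence and viable-cell signal on separate replicate plates, given as percent of non-targeting control and median/MAD z-scores, plus per-cell luciferase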
- Scale: total luciferase, z-score and total luciferase, % of control: higher = more reporter protein produced; luciferase per cell, z-score: higher = more reporter output per viable cell; viable cells, % of control: higher = more viable cells
- Active means: 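Active when the median/MAD z-score for overall luciferase is greater than 3; a gene was taken forward for validation with new siRNAs if at least two of its three siRNAs passed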
- Calls: active = raised luciferase; inactive = no rise

The opening 3 records as a preview:
gene symbol | PubChem SID | total luciferase, z-score | total luciferase, % of control | luciferase per cell, z-score | viable cells, % of control | Call
PRTG | SID160763005 | 0.779 | 97.4 | 0.696 | 90.6 | inactive
PRTG | SID160763006 | 0.536 | 92.6 | 0.649 | 87.2 | inactive
PRTG | SID160763007 | 0.183 | 85.5 | -0.511 | 109 | inactive

The listing, from the start:
gene symbol | PubChem SID | total luciferase, z-score | total luciferase, % of control | luciferase per cell, z-score | viable cells, % of control | Call
PRTG | SID160763005 | 0.779 | 97.4 | 0.696 | 90.6 | inactive
PRTG | SID160763006 | 0.536 | 92.6 | 0.649 | 87.2 | inactive
PRTG | SID160763007 | 0.183 | 85.5 | -0.511 | 109 | inactive
MAPK8IP3 | SID160735590 | 1.32 | 108 | 0.823 | 97.2 | inactive
MAPK8IP3 | SID160735591 | 2.16 | 125 | 1.7 | 89.3 | inactive
MAPK8IP3 | SID160735592 | 0.384 | 89.5 | 0.0908 | 97.7 | inactive
ZNF793 | SID160766599 | 0.189 | 85.6 | -0.0981 | 98.2 | inactive
ZNF793 | SID160766600 | -0.77 | 66.6 | -0.965 | 95.9 | inactive
ZNF793 | SID160766601 | 0.934 | 100 | 1.15 | 82.9 | inactive
TOMM34 | SID160729609 | -1.99 | 42.2 | -2.88 | 101 | inactive
TOMM34 | SID160729610 | 0.532 | 92.5 | -0.0558 | 105 | inactive
TOMM34 | SID160729611 | -1.02 | 61.6 | -1.41 | 99.7 | inactive
SCAP | SID160775356 | 0.113 | 84.1 | -0.286 | 101 | inactive
SCAP | SID160775367 | 0.413 | 90.1 | 0.467 | 89 | inactive
SCAP | SID160775377 | 1.36 | 109 | 0.832 | 97.8 | inactive
KGD4 | SID160754229 | 0.619 | 94.2 | 0.875 | 83.6 | inactive
KGD4 | SID160754230 | -1.93 | 43.4 | -1.04 | 63.9 | inactive
KGD4 | SID160754231 | -1.33 | 55.5 | -0.307 | 67.2 | inactive
POLR1F | SID160761764 | 1.57 | 113 | 1.07 | 95.3 | inactive
POLR1F | SID160761765 | -2.05 | 41.1 | -1.16 | 62.4 | inactive
POLR1F | SID160761766 | -0.426 | 73.4 | 0.348 | 74.9 | inactive
MBNL3 | SID160744384 | 1.19 | 106 | 0.669 | 98.9 | inactive
MBNL3 | SID160744385 | 0.627 | 94.4 | 0.268 | 98.2 | inactive
MBNL3 | SID160744386 | 0.386 | 89.6 | 0.237 | 94 | inactive
